Data as given in PubChem BioAssay AID1671195 (Yale University, 2021).

Assay: 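Genes whose knockdown alters LDL uptake in liver cancer cells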 (primary screen)
Cells: human Huh7 hepatoma cells
Knock-down reagent: siRNA pool against human genes, 18 nM
Duration: about 2 to 2.5 days of knockdown, then 8 h LDL uptake
Treatment: DiI-labelled LDL at 30 µg/ml for 8 h, in lipoprotein-deficient serum medium
Measured: 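Fluorescent LDL signal imaged in cells, scaled to the plate median, robust z-score for each replicate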
Direction: robust z-score: higher = more LDL uptake after knockdown
Active means: 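a gene counts as active if at least two replicate z-scores exceed ±2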
The whole screen tested about 22,000 reagents; this is a random part of them. Of all reagents, about 1,510 (6.9%) were called active. 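Active includes knockdowns raising or lowering LDL uptake; positive z-scores mean more uptake, negative mean less.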 A number with no mark means an inactive call.

gene knocked down	robust z-score, replicate 1	robust z-score, replicate 2	robust z-score, replicate 3
SETD5	-0.971	0.253	-1.64
PRKXP1	-0.469	-0.826	-0.272
ITGA2B	0.336	-0.603	0.428
TUBB4B	-0.174	-0.58	-0.227
CHD6	0.72	0.533	0.614
HDAC8	1.58	1.21	0.294
LOC389142 (retired record)	0.306	-0.112	0.232
NPR1	-0.636	0.397	-0.445
HECW2	-0.205	0.0818	0.198
PLEKHG4B	-2.08	-1.8	-1.66
ZSCAN18	-1.36	-1.19	-0.792
PDE1A	0.765	-0.492	0.881
OBP2B	-1.22	-0.426	-0.256
CEP78	0.803	0.173	0.374
TBC1D10A	0.294	-0.0601	-0.134
ELP2	-0.805	-1.05	-2.01
ZRSR2	0.617	0.769	0.521
DIAPH3	-1.25	-1.1	-1.38
LOC441513 (retired record)	0.903	0.151	0.274
LOC440728 (retired record)	0.837	1.94	0.752
INSC	0.287	0.313	0.513
LOC441167 (retired record)	-0.287	-0.982	-0.539

Reformatted: 8 of the entries above
| gene knocked down | robust z-score, replicate 1 | robust z-score, replicate 2 | robust z-score, replicate 3 |
| --- | --- | --- | --- |
| HECW2 | -0.205 | 0.0818 | 0.198 |
| PLEKHG4B | -2.08 | -1.8 | -1.66 |
| ZSCAN18 | -1.36 | -1.19 | -0.792 |
| PDE1A | 0.765 | -0.492 | 0.881 |
| OBP2B | -1.22 | -0.426 | -0.256 |
| CEP78 | 0.803 | 0.173 | 0.374 |
| TBC1D10A | 0.294 | -0.0601 | -0.134 |
| ELP2 | -0.805 | -1.05 | -2.01 |

Next entries follow.
gene knocked down	robust z-score, replicate 1	robust z-score, replicate 2	robust z-score, replicate 3
ZNHIT6	-1.56	0.352	-1.6
CFD	-0.815	-1.42	-1.02
FDX1	-0.358	0.322	0.136
HES5	0.0175	0.103	-0.417
BAD	-0.697	-0.652	-0.49
DHCR24	-0.645	-1.33	-1.04
LMO3	-1.63	-1.27	-1.48
REELD1	-1.05	-0.788	-0.895
KNSTRN	1.17	0.347	1.02
ZZZ3	-0.198	0.0989	0.728
ERO1B	0.112	-0.702	0.175
OR10A5	-1.82	-0.878	-1.58
SND1-IT1	-0.838	-0.146	0.729
SSTR3	-0.82	-1.13	-0.769
LOC442199 (retired record)	0.928	-0.147	-0.0648
TLL2	-0.955	-1.73	-1.3
IL15	1	0.909	1.1
TNIP1	-0.493	0.15	0.826
SLC13A2	0.146	0.628	0.356
DNAJA3	-0.541	-0.279	-0.314
B3GNT8	-0.906	-0.486	-0.565
TIE1	-0.0811	-0.556	-0.672
SPNS1	-0.79	-0.0118	-0.417
C9orf85	-0.0678	-0.214	-0.584
LOC442313 (retired record)	-0.98	-0.593	-0.98
PDZD4	0.122	1.37	2.63
FOXO1	0.365	0.546	0.314
ENDOD1	0.552	0.696	-0.645
BHLHE22	1.99	0.162	1.67
PRKACA	-1.27	-1.27	-1.02
CTNNBIP1	-0.761	-1.12	-0.934
MRNIP	1.4	0.31	1.71
FLJ10088 (retired record)	0.756	0.196	0.211
LINC02092	0.703	0.0375	0.476
USP33	-1.06	-0.848	-0.646
PAK4	-0.315	0.448	0.326
HDC	-0.461	2.27	-0.0975
USP26	-0.513	-0.765	-0.0846
LOC441379 (retired record)	-0.872	-1.77	-1.2
NOD1	0.361	0.244	0.285
RIMS1	0.652	0.3	1.42
RCN1	-1.49	-1.37	-1.32
ABCC2	-0.317	-0.301	-0.723
LOC441035 (retired record)	-0.227	-0.877	-0.619
PTK2	-2.07 (active)	-1.64	-1.97
ZNF621	-1.59	-1.48	-1.04
